Measurements reported in PubChem BioAssay AID1259266 (Sanger Institute, 2017)
In all, the deposit lists 794 reagents; below is a part drawn at random. Of all reagents, 16 (2%) are marked active. 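Calls reflect knock-down alone, not drug synergy; viability seems capped at 1 and z-scores at 0.585.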 Unmarked entries are inactive. Not all columns of the deposit are shown. Not stated in the record: the amount of reagent, the time to read-out.

- Purpose: 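Search kinases and colorectal cancer genes for essential genes and drug synergy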 (primary screen)
- System: LS123 human colorectal cancer cells
- Knock-down reagent: siRNA pool against human genes
- Challenge: anchor drugs BYL719 (1 µM), cetuximab (5 µg/ml) or trametinib (10 nM), each chosen to barely slow growth alone; DMSO vehicle as the drug-free arm
- Detection: 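Replicate-averaged viability scaled to non-targeting pools, robust z-score for siRNA alone, and a synergy score per anchor drug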
- Reading the numbers: robust z-score, knock-down alone: higher = more cells surviving after knock-down; viability, knock-down alone: higher = more viable cells
- Hit rule: 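a knock-down counts as essential if its z-score without drug is under -3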
- Meaning of the calls: active = essential (knock-down alone cuts viability); inactive = no change

Gene	robust z-score, knock-down alone	viability, knock-down alone (fraction of control)
TAF1L	0.585	1
AK2	0.585	1
TSSK6	-2.45	0.82
TP53	-0.559	0.932
STAG2	0.585	1
CDK14	-1.73	0.863
STK36	0.585	1
COMMD3	0.585	1
PRKCI	-0.151	0.956
MSR1	-0.118	0.958
LIMK1	0.0093	0.966
RBKS	0.585	1
ITPKC	0.585	1
RUNX1	0.31	0.984
PRP4K	-0.614	0.929
PRKDC	0.585	1
PKM	0.585	1
SPHK1	-0.0452	0.963

Single entries from the entries so far:
For “viability, knock-down alone (fraction of control)”, MSR1 is entered as 0.958
For “robust z-score, knock-down alone”, LIMK1 is entered as 0.0093
Entry of PRKDC in “viability, knock-down alone (fraction of control)”: 1
Result of TAF1L in “robust z-score, knock-down alone”: 0.585
For “robust z-score, knock-down alone”, PRP4K has -0.614
Entry for AK2 in “robust z-score, knock-down alone”: 0.585

The listing continues.
Gene	robust z-score, knock-down alone	viability, knock-down alone (fraction of control)
MAP3K1	0.224	0.979
TK2	0.0486	0.968
CREBBP	0.585	1
PSTK	0.585	1
MOK	0.585	1
UCK1	0.268	0.981
DNMT3A	0.585	1
ANKK1	0.585	1
PI4K2B	-2.23	0.833
CEP290	0.585	1
MAPK6	0.585	1
PRKAB1	-0.843	0.915
NADK	-0.814	0.917
WT1	0.585	1
SLK	0.585	1
CERT1	-0.181	0.955
MELK	0.585	1
MAP3K5	0.585	1
UCK2	0.585	1
DGKQ	-0.681	0.925
GRK3	0.585	1
CDKN2B	0.585	1
CDK12	-0.0327	0.963
MAP2K3	-0.289	0.948
VRK1	0.585	1
GUCY2C	0.585	1
TSKS	0.585	1
ITK	0.585	1
ROR1	0.585	1
PDGFRL	0.585	1
DYRK3	-0.219	0.952
PCK1	-0.464	0.938
